Measured values reported in PMC6667215, “Cell-sized confinement controls generation and stability of a protein wave for spatiotemporal regulation in cells” (eLife, 2019).
No constants are given. Whether binding was seen depends on the method and setting.

Amino acid sequences for entries named in this document (tags omitted). Residues count along the entry.
UniProt P0AEZ3: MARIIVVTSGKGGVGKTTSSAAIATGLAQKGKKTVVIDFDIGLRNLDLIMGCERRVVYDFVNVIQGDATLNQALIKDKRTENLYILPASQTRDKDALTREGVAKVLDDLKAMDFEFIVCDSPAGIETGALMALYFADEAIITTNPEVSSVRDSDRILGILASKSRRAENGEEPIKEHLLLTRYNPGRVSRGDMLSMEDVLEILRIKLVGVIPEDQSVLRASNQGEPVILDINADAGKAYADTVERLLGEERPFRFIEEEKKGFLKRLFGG
UniProt P02769, residues 25-607: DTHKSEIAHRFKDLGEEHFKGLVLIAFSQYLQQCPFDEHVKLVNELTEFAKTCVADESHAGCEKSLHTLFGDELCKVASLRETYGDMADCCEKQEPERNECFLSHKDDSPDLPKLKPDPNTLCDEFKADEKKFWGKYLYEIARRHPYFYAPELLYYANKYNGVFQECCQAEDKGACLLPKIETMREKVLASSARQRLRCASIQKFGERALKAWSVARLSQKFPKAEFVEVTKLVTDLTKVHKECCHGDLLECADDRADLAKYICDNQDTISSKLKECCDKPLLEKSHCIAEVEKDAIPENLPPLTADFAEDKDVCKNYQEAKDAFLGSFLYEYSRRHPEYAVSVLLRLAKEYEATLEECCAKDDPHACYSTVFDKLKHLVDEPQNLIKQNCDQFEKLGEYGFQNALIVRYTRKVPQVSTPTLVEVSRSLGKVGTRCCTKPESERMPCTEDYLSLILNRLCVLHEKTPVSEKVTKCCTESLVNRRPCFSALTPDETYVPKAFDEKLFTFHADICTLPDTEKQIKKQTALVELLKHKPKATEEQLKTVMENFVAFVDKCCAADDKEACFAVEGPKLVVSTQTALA

Tests used:
[1] = target: MinE-mCherry-His (E. coli K12 MG1655) (UniProt P0A734); assay: pull-down; His-tagged Min protein held on cOmplete His-Tag purification (Ni-NTA) resin; 9 µM MinE-mCherry-His, 3 µM His-sfGFP-MinD or 6 µM thrombin-treated MinD^D40AΔ10, with or without 3 µM BSA; RE buffer, 30 min, room temperature; washed with 20 mM imidazole, eluted with 250 mM imidazole; SDS-PAGE and CBB staining; both purified
[2] = target: His-sfGFP-MinD (E. coli MG1655) (UniProt P0AEZ3); assay: as above

- binding [1]: no binding (tested: 3 µM BSA)
- binding [2]: no binding (tested: 3 µM BSA)
Substance: BSA (from UniProt P02769 25-607)
